{"source": "PubChem BioAssay AID1671195 (Yale University, 2021)", "aim": "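Knockdowns that increase or decrease uptake of fluorescent LDL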 (primary screen)", "system": "human Huh7 hepatoma cells", "reagents": "siRNA pool against human genes, 18 nM", "duration": "about 2 to 2.5 days of knockdown, then 8 h LDL uptake", "conditions": "DiI-labelled LDL at 30 µg/ml for 8 h, in lipoprotein-deficient serum medium", "measurement": "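Fluorescent LDL signal imaged in cells, scaled to the plate median, robust z-score for each replicate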", "scale": "robust z-score: higher = more LDL uptake after knockdown", "rule for the call": "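Active when two or more replicates show a robust z-score above 2 or below -2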", "note": "Shown is an unselected part of about 22,000 reagents. Over the whole deposit, about 1,510 (6.9%) are marked active. 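Active includes knockdowns raising or lowering LDL uptake; positive z-scores mean more uptake, negative mean less.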 Unmarked entries are inactive. Reagent sequences are not shown."}
The first 2 records, to show the layout:
{"gene knocked down": "GPI (GeneID 2821)", "robust z-score, replicate 1": "2.96 (active)", "robust z-score, replicate 2": 3.62, "robust z-score, replicate 3": 2.61}
{"gene knocked down": "MBTD1 (GeneID 54799)", "robust z-score, replicate 1": 1.45, "robust z-score, replicate 2": 1.54, "robust z-score, replicate 3": 3.32}

Main list, repeating the preview:
{"gene knocked down": "GPI (GeneID 2821)", "robust z-score, replicate 1": "2.96 (active)", "robust z-score, replicate 2": 3.62, "robust z-score, replicate 3": 2.61}
{"gene knocked down": "MBTD1 (GeneID 54799)", "robust z-score, replicate 1": 1.45, "robust z-score, replicate 2": 1.54, "robust z-score, replicate 3": 3.32}
{"gene knocked down": "FBXO34 (GeneID 55030)", "robust z-score, replicate 1": 1.53, "robust z-score, replicate 2": 2.16, "robust z-score, replicate 3": 0.00998}
{"gene knocked down": "EPS8 (GeneID 2059)", "robust z-score, replicate 1": -0.317, "robust z-score, replicate 2": -0.474, "robust z-score, replicate 3": -0.409}
{"gene knocked down": "ATP2A3 (GeneID 489)", "robust z-score, replicate 1": 1.21, "robust z-score, replicate 2": 0.837, "robust z-score, replicate 3": 0.312}
{"gene knocked down": "TRMT10A (GeneID 93587)", "robust z-score, replicate 1": 1.76, "robust z-score, replicate 2": 1.55, "robust z-score, replicate 3": 1.06}
{"gene knocked down": "ITGB4 (GeneID 3691)", "robust z-score, replicate 1": -0.312, "robust z-score, replicate 2": -0.461, "robust z-score, replicate 3": -0.45}
{"gene knocked down": "CYFIP2 (GeneID 26999)", "robust z-score, replicate 1": -0.1, "robust z-score, replicate 2": 0.518, "robust z-score, replicate 3": 0.569}
{"gene knocked down": "SLC35F3 (GeneID 148641)", "robust z-score, replicate 1": -1.26, "robust z-score, replicate 2": -0.508, "robust z-score, replicate 3": -0.771}
{"gene knocked down": "LOC387932 (retired record) (GeneID 387932)", "robust z-score, replicate 1": -0.289, "robust z-score, replicate 2": -0.207, "robust z-score, replicate 3": 0.183}
{"gene knocked down": "SPHK2 (GeneID 56848)", "robust z-score, replicate 1": 0.762, "robust z-score, replicate 2": 0.436, "robust z-score, replicate 3": 0.431}
{"gene knocked down": "EFCAB8 (GeneID 388795)", "robust z-score, replicate 1": 0.401, "robust z-score, replicate 2": 0.122, "robust z-score, replicate 3": 0.683}
